Source: PMC2791867
These are yes or no findings as the source states them, for the method shown. In cells and extracts the contact can be indirect. Binding can be weak; no strength is given. For some assays here: Tags and fused reporters may be left off the sequences shown.

Key:
[1] = target: T1, Flag-tagged FLRT3 expressed in Xenopus embryos (Xenopus) (UniProt Q70AK3); assay: co-IP; extracts of Xenopus embryos injected with FLRT3-Flag and RND1-HA RNA with or without FL-PAPC, M-PAPC or PAPC-TMC RNA; anti-Flag IP and Western blot
T1 sequence: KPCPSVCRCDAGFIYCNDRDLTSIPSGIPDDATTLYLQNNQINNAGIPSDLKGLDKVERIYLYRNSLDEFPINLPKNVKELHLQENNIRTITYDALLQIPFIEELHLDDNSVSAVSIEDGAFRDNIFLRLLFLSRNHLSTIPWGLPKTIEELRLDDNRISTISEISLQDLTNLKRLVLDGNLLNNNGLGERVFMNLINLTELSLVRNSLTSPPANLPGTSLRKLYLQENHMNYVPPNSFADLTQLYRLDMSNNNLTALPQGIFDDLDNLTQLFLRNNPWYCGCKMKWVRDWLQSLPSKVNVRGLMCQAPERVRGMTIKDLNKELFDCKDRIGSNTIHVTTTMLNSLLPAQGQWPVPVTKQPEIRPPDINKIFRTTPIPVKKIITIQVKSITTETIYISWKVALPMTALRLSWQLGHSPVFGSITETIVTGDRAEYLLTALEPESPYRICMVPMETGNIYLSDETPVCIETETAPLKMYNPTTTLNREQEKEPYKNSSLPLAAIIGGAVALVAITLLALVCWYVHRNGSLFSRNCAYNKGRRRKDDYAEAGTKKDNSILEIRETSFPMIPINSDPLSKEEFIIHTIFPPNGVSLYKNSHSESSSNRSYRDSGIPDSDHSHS

[2] = target: T2, FLRT3 expressed in Xenopus embryos (cross-linking experiment) (Xenopus) (UniProt Q70AK3); assay: cross-linking + co-IP; total membranes of stage 10.5 Xenopus embryos injected with PAPC and FLRT3 RNAs, crosslinked with 0.5 mM Sulfo-DST, dissolved in Ripa buffer, IP with preimmune, anti-PAPC or anti-FLRT3 IgG; Western blot
T2 sequence: T1 sequence

Row | binding [1] | binding [2] | Substance
1 | binds | – | HA-tagged RND1 expressed in Xenopus embryos
2 | – | binds weakly | endogenous C-cadherin of Xenopus embryos
